Assay results: patent publication US10758466B2, “Powder-based cosmetic compositions containing pelargonic acid esters” (Novamont S.p.A., priority 2015, dated 2020)

Assay: Sensory evaluation of the pigment dispersions on the forearm
Settings: black iron oxide dispersion on forearm; scale from 1 (low) to 5 (high)

| SMILES | Film evennes | Flowability | Gloss effect | Writing capability/color intensity |
| --- | --- | --- | --- | --- |
| CCCCCCCCC(=O)OCC(COC(=O)CCCCCCCC)OC(=O)CCCCCCCC [Glycerol tripelargonate] | 4 | 5 | 5 | 4 |
| CC(C)CCCCCCOC(=O)CCCCCC(C)C [Isononyl Isononanoate, reference compound] | 2 | 4 | 2 | 2 |
| CCCCCCCCC(=O)OCC(C)(C)COC(=O)CCCCCCCC [Neopentyl glycol dipelargonate] | 4 | 2 | 2 | 3 |
| CCCCCCCCC(=O)OCC(COC(=O)CCCCCCCC)(COC(=O)CCCCCCCC)COC(=O)CCCCCCCC [Pentaerythritol tetrapelargonate] | 4 | 4 | 5 | 4 |
